Experimental data as given in PubChem BioAssay AID540256 (National Center for Advancing Translational Sciences (NCATS), 2011).
The whole screen tested about 300,000 compounds, of which about 3,700 (1.2%) were called active. The shares of active, inactive and inconclusive entries below differ from those in the screen. The call rests on the fitted dose curve; tested in HEK293 cells. Potencies beside an inconclusive call are fits to weak or partial responses and may not hold up.

assay: qHTS for Inhibitors of binding or entry into cells for Lassa Virus; settings: Lassa virus pseudotype entry inhibition, cell reporter; activity change, negative = inhibition: at 37.9 µM (top of the series) unless noted; further: nearly all actives have a fitted effect of over 50% in size
On the % scale 0 is the no-effect control and ±100 the full control effect; potency means the concentration at half of the fitted maximal effect.

| SMILES | Potency | activity change, negative = inhibition |
| --- | --- | --- |
| CC(C)C(=O)Nc1ccc(C(=O)N/N=C/c2cc(Br)cc(Br)c2O)cc1 | inconclusive: 10 µM [inhibitor, partial curve, poor fit] |  |
| CCN(c1ccc(Cl)cc1)S(=O)(=O)c1nnc(NC(=O)c2ccccc2C)s1 | inconclusive: 3.55 µM [inhibitor, partial curve, poor fit] |  |
| COc1ccc(CN2C(=O)c3ccccc3C(/C=N\OCc3ccc(F)cc3)C2=O)cc1 (configuration not stated) |  | inactive: -3.08% |
| COc1ccc(CNC(=O)C2CCCN(S(=O)(=O)c3ccc(Br)s3)C2)cc1 (configuration not stated) | inconclusive: 0.316 µM [inhibitor, full curve, poor fit] |  |
| O=S(=O)(Nc1c(O)ccc2ccccc12)c1cccc2ccccc12 | inconclusive: 0.631 µM [inhibitor, full curve, poor fit] |  |
| CCOC(=O)c1ccc(-c2ccc(/C=C(\C#N)c3nc4ccc(C)cc4[nH]3)o2)cc1 | inconclusive: 6.31 µM [inhibitor, single point] |  |
| COc1ccc(/C=N/NC(=O)c2ccccc2F)cc1CN1CCN(c2ccc(F)cc2)CC1 | inconclusive: 0.891 µM [inhibitor, single point] |  |
| CN(CCC#N)C(=O)COC(=O)c1ccccc1C(=O)c1ccc(Cl)c([N+](=O)[O-])c1 | inconclusive: 35.5 µM [inhibitor, single point] |  |
| C=CCOC(=O)C1=C(C)NC(=O)NC1c1cn(-c2ccccc2)nc1-c1cccs1 (configuration not stated) | inconclusive: 29.1 µM [inhibitor, single point] |  |
| Cc1ccc2[nH]cc(C(c3ccccc3)c3ccc(C)s3)c2c1 (configuration not stated) | inconclusive: 3.16 µM [activator, single point] |  |
| COc1ccc(N2CC(C(=O)Nc3ccc4c(c3)OCCO4)CC2=O)cc1 (configuration not stated) |  | inactive: 7.67% |
| CC1=C(C(=O)Nc2ccccc2)C(c2ccco2)C(C#N)=C(SCC(=O)Nc2cccc(C)c2C)N1 (configuration not stated) |  | inactive: 9.93% |
| Cc1ccc2nc(-c3ccc(NC(=O)C(C)N4C(=O)c5ccccc5C4=O)cc3)sc2c1 (configuration not stated) | inconclusive: 1.41 µM [activator, partial curve, poor fit] |  |
| CC(=O)N/C(=C/c1ccc2c(c1)OCO2)C(=O)NCC(=O)O | inconclusive: 0.164 µM [inhibitor, single point] |  |
| COc1ccc(-c2onc(C)c2C)cc1S(=O)(=O)NCc1ccc(C)o1 | inconclusive: 0.794 µM [inhibitor, partial curve, poor fit] |  |
| Cc1ccc(CN=c2c([N+](=O)[O-])nn(-c3cccc(Cl)c3)n2O)cc1 | inconclusive: 6.31 µM [activator, full curve, poor fit] |  |
| CC(=O)OC[C@H]1O[C@H](CC=NO[C@@H](C)c2cn([C@H](CO)Cc3ccccc3)nn2)C=C[C@@H]1OC(C)=O | inconclusive: 2.37 µM [inhibitor, single point] |  |
| COc1cc(C2C(C#N)=C(N)OC3=C2C(=O)CC(C)(C)C3)ccc1OCCN1CCOCC1 (configuration not stated) | inconclusive: 35.5 µM [activator, single point] |  |
| CCN1C(=O)C2C(c3ccccc3F)NC(Cc3ccc(O)cc3)(C(=O)OC)C2C1=O (configuration not stated) |  | inactive: -10.4% |
| COc1ccc(-n2nc(C(=O)NCC(=O)N3CCN(Cc4ccccc4)CC3)c3ccccc3c2=O)cc1 | inconclusive: 8.91 µM [inhibitor, partial curve, poor fit] |  |
| O=C1CS/C(=N/N=C2CCCC2)N1 |  | inactive: 2.36% |
| CCOC(=O)CN1C(=O)C(Sc2n[nH]c(-c3ccc(O)cc3)n2)CCc2ccccc21 (configuration not stated) |  | inactive: -4.88% |
| CC(=O)N(C1=C(N)C(=O)c2ccccc2C1=O)C(C)C |  | inactive: 4.78% [at 46.1 µM] |

| SMILES | Potency | activity change, negative = inhibition |
| --- | --- | --- |
| Cc1sc2nc(SCCN(C)C)n(-c3ccccc3)c(=O)c2c1-c1ccc(F)cc1 | inconclusive: 31.6 µM [inhibitor, single point] |  |
| Cc1cc(NC(=O)c2ccc(Cl)cc2)no1 | inconclusive: 6.51 µM [activator, single point] |  |
| Cc1ccc(Cl)cc1N1CCN(Cc2nnnn2C2CCCCC2)CC1 | inconclusive: 11.2 µM [inhibitor, partial curve] |  |
| O=C(CCCCCn1c(=S)[nH]c2ccc(N3CCOCC3)cc2c1=O)NCc1ccccc1Cl | inconclusive: 35.5 µM [inhibitor, single point] |  |
| COc1ccc2[nH]c(=O)c(CN(C(=O)C3CCCO3)c3ccc(C)c(C)c3)cc2c1 (configuration not stated) | inconclusive: 25.1 µM [inhibitor, partial curve, poor fit] |  |
| CCc1ccc(Sc2cc(C(=O)O)c3ccccc3n2)cc1 |  | inactive: -28.6% [at 46.1 µM] |
| CC1=C(CCN2CCN(C(C)C)C(CCO)C2)C(C)(C)CCC1 (configuration not stated) | inconclusive: 22.4 µM [inhibitor, partial curve, poor fit] |  |
| CC1Cc2ccccc2N1S(=O)(=O)c1cccc(C(=O)N2CCCCC2)c1 (configuration not stated) |  | inactive: -29.5% |
| CCC(=O)Nc1cccc(-c2nc3ccccc3c(=O)o2)c1 |  | inactive: -0.216% |
| CCN1CCC2(CC1)Oc1c(OC)cccc1C1CC(c3cccnc3)=NN12 (configuration not stated) |  | inactive: -11.3% [at 46.1 µM] |
| Cc1ccccc1CSCc1nc2ccccc2[nH]1 | inconclusive: 35.5 µM [inhibitor, single point] |  |
| CCc1ccc2c(c1)/C(=C/C(=O)c1cccs1)C(=O)N2 | inconclusive: 29.1 µM [inhibitor, single point] |  |
| O=C(NNC(=O)C1CC=CCC1)c1ccccc1Cl (configuration not stated) |  | inactive: 5.14% |
| CCOC(=O)C1(CCOc2ccccc2)CCN(Cc2cccn2-c2cccnc2)CC1 | inconclusive: 20 µM [inhibitor, partial curve, poor fit] |  |
| C/C(=C1/SC(N2CCCC2)=NC1=O)c1ccc(Br)cc1 | active: 4.47 µM |  |
| Cc1ccc(Cn2ccsc2=NC(=O)COC(=O)c2ccc(NC(=O)CC#N)cc2)cc1 | inconclusive: 0.891 µM [inhibitor, full curve, poor fit] |  |
| COc1cccc(C(=O)N2CCN(C3CCC(c4ccccc4)CC3)CC2)c1 (configuration not stated) | inconclusive: 7.94 µM [inhibitor, partial curve, poor fit] |  |
| O=C(CCC1CCCC1)Nc1ccc(Br)cn1 |  | inactive: -11.9% |
| O=C1NCCc2c1[nH]c1c(Cl)ccc(Cl)c21 |  | inactive: 12.5% |
| CCn1ccc2c(OCC(=O)NCc3ccccc3)cccc2c1=O | inconclusive: 1.26 µM [inhibitor, full curve, poor fit] |  |
| Cc1ccc(CNc2ccc(N3CCOCC3)cc2)s1 | inconclusive: 29.1 µM [inhibitor, single point] |  |
| OCC1(CCc2ccccc2)CCCN(CCCc2ccccc2)C1 (configuration not stated) | inconclusive: 20 µM [inhibitor, single point] |  |
| O=C(CSc1c[nH]c2ccccc12)N1CCOCC1 | inconclusive: 29.1 µM [activator, single point] |  |

| SMILES | Potency | activity change, negative = inhibition |
| --- | --- | --- |
| COc1cccc(-c2noc(-c3cccs3)n2)c1 | inconclusive: 0.103 µM [activator, full curve, poor fit] |  |
| CC(=O)Nc1ccc(NC(=O)CCCN2C(=O)c3ccccc3C2=O)cc1 | inconclusive: 0.1 µM [inhibitor, partial curve, poor fit] |  |
| Cc1nn(Cc2ccccc2)c(Cl)c1/C=N/NC(=O)CNc1cccc(C(F)(F)F)c1 | inconclusive: 7.94 µM [inhibitor, partial curve, poor fit] |  |
| Clc1ccc2nc3c4ccccc4cnn3c2c1 | inconclusive: 25.1 µM [inhibitor, single point] |  |
| CCN1CCN(c2nc3ccccc3nc2C(C#N)C(=O)OC2CCCCC2)CC1 (configuration not stated) | inconclusive: 11.2 µM [inhibitor, single point] |  |
| Cc1cccc(N(Cc2cc3ccccc3[nH]c2=O)C(=O)c2cccc(Cl)c2)c1 |  | inactive: -3.54% [at 46.1 µM] |
| O=C(c1ccc(F)cc1)N1CCCCC(Sc2nnnn2-c2ccccc2)C1=O (configuration not stated) | inconclusive: 14.1 µM [inhibitor, single point] |  |
| CN(C)/C=C1/N=C(c2ccccc2)OC1=O | inconclusive: 1.58 µM [activator, partial curve, poor fit] |  |
| O=c1cc(CCl)nc2sc3ccccc3n12 | inconclusive: 22.4 µM [inhibitor, single point] |  |
| O=C(CN1CCN(Cc2ccc(Cl)cc2)CC1)N/N=C/c1cccc(F)c1 | inconclusive: 12.6 µM [inhibitor, partial curve, poor fit] |  |
| COc1ccc(Oc2c(Cl)cnn(-c3ccc(F)cc3)c2=O)cc1 | inconclusive: 12.6 µM [inhibitor, single point] |  |
| Cc1cccc(/C=N/NC(=O)c2ccc(NC(=O)c3ccc(Cl)cc3)cc2)n1 |  | inactive: -7.24% [at 46.1 µM] |
| CCc1ccccc1NC(=O)c1sc2nc(C)cc(COC)c2c1N |  | inactive: -25.7% [at 46.1 µM] |
| Cc1nc(N2CCN(C)CC2)c2c(C)c(C(=O)Nc3ccc(C)c(F)c3)sc2n1 |  | inactive: 0.394% |
| O=C(CCSCc1cccc(Cl)c1)NCc1ccc(F)cc1Cl |  | inactive: 9.84% [at 46.1 µM] |
| COc1cccc(N(C(=O)c2ccco2)C(C(=O)NC2CCCC2)c2ccc(N(C)C)cc2)c1 (configuration not stated) |  | inactive: -11.1% |
| CCC(C)NC(=O)CSc1ccc(NC(C)=O)cc1 (configuration not stated) |  | inactive: -3.36% |
| CN(C)c1ccc(NC(=S)NC23CC4CC(CC(C4)C2)C3)cc1 | inconclusive: 7.08 µM [inhibitor, full curve] |  |
| O=C1Nc2ccccc2N(O)N1c1cc(-c2ccccc2Cl)no1 | inconclusive: 8.2 µM [inhibitor, partial curve, poor fit] |  |
| COc1ccc(C(CCc2ccc(C)o2)NC(=O)Nc2ccc(OC)cc2OC)cc1 (configuration not stated) | inconclusive: 18.3 µM [inhibitor, partial curve, poor fit] |  |
| O=C(NC1CCCC1)C(c1ccc(F)cc1)N(Cc1ccccc1)C(=O)c1csnn1 (configuration not stated) | inconclusive: 0.562 µM [inhibitor, full curve, poor fit] |  |

In the list so far, these have a nitro group on carbon.

| SMILES | Potency | activity change, negative = inhibition |
| --- | --- | --- |
| CN(CCC#N)C(=O)COC(=O)c1ccccc1C(=O)c1ccc(Cl)c([N+](=O)[O-])c1 | inconclusive: 35.5 µM [inhibitor, single point] |  |
| Cc1ccc(CN=c2c([N+](=O)[O-])nn(-c3cccc(Cl)c3)n2O)cc1 | inconclusive: 6.31 µM [activator, full curve, poor fit] |  |
